Experimental data from patent US20130171170A1.
These are yes or no findings as the source states them, for the method shown. Some binding calls cover weakened binding; strength is not graded here.

Protein sequences, listed by entry. Tags and fused reporters are not part of them. Lines headed by an entry give the natural chain unless they say otherwise; changes in a name come on top.
UniProt P20273: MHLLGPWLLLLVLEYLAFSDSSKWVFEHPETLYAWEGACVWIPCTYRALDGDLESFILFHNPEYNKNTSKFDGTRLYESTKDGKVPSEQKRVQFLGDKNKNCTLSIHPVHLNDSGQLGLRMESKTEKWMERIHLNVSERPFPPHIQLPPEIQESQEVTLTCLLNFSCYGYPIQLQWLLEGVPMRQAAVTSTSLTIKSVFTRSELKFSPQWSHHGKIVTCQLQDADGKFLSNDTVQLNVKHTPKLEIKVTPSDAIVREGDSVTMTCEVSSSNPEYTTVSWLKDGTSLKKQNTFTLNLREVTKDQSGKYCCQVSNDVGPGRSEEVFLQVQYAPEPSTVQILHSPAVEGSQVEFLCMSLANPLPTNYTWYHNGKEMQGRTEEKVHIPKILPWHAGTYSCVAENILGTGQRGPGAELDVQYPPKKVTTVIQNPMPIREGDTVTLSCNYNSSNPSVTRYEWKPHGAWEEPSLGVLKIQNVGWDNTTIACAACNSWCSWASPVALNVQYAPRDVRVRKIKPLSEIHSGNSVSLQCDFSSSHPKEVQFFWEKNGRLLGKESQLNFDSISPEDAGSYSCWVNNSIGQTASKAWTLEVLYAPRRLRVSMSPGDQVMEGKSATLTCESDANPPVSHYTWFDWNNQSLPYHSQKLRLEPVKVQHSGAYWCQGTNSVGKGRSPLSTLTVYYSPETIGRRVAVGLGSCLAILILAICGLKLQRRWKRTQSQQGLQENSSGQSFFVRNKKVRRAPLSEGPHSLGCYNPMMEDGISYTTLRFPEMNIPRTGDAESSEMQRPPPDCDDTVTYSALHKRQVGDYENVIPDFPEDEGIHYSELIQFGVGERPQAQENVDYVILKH

Target: human CD22 (form in the assay not stated) (human) (UniProt P20273)
Test: cell-based (FACS) and plate (ELISA) screening assays

binding: binds
B1: murine anti-human CD22 10F4.4.1 monoclonal antibody (antibody, V domains shown)
VH: QVQLQQSGPELVKPGASVKISCKASGYEFSRSWMNWVKQRPGQGREWIGRIYPGDGDTNYSGKFKGKATLTADKSSSTAYMQLSSLTSVDSAVYFCARDGSSWDWYFDVWGAGTTVTVSS
VL: DILMTQTPLSLPVSLGDQASISCRSSQSIVHSNGNTFLEWYLQKPGQSPKLLIYKVSNRFSGVPDRFSGSGSGTDFTLKISRVEAEDLGVYYCFQGSQFPYTFGGGTKVEIK
